Data from the supplement of paper PMC10849652.
This is one part of the list. Residues, ends and D or L forms follow the SMILES beside them. *: point of attachment. Cbz = O=C(OCc1ccccc1)*

By UniProt entry, the sequences of proteins in these tests, tags left out. Where a name states a change or a piece, a line headed by the entry shows the natural chain unless it says otherwise.
UniProt Q96C90: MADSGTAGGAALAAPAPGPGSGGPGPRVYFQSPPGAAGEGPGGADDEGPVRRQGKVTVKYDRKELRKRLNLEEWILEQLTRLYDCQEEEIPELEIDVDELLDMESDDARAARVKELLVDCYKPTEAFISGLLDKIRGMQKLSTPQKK
UniProt O00743: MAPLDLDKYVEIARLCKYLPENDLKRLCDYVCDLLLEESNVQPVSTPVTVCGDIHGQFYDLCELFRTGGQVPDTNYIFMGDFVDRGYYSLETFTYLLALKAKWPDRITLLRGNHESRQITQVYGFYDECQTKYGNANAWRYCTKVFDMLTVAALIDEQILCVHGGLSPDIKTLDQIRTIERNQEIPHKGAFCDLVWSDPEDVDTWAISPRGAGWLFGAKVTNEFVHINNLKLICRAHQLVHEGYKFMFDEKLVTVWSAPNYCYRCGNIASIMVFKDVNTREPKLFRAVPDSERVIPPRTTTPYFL
UniProt Q9BZL6: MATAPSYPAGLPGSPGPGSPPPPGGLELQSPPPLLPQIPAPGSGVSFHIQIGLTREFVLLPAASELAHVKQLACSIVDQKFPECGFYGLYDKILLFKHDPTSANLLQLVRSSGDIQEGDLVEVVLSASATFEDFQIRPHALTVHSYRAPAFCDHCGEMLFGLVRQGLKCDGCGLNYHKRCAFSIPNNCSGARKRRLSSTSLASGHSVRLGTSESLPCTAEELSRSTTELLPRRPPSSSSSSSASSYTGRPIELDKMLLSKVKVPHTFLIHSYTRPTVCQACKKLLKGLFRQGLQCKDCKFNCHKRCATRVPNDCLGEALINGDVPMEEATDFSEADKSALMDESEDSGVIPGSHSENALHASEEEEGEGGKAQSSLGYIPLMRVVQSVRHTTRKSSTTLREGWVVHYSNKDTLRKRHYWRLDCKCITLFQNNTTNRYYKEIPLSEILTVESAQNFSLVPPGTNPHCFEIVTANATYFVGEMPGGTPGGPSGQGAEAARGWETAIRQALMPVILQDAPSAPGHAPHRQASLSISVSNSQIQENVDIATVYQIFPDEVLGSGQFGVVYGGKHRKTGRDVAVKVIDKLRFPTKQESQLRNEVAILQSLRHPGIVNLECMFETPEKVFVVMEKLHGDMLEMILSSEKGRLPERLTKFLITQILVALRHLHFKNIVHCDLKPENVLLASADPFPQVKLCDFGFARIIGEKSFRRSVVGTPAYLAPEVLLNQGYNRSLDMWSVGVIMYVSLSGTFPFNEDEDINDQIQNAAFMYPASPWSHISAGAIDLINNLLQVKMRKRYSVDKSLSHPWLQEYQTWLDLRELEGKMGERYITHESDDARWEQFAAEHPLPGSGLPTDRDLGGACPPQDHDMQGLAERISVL
UniProt O43741: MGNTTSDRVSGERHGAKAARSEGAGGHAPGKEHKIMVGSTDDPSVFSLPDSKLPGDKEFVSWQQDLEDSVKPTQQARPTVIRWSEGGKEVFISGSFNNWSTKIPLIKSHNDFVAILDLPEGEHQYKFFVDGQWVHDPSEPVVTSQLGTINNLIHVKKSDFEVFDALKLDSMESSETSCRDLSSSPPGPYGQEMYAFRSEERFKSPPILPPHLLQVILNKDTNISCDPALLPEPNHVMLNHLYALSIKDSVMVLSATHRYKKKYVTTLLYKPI
UniProt Q8WWY3: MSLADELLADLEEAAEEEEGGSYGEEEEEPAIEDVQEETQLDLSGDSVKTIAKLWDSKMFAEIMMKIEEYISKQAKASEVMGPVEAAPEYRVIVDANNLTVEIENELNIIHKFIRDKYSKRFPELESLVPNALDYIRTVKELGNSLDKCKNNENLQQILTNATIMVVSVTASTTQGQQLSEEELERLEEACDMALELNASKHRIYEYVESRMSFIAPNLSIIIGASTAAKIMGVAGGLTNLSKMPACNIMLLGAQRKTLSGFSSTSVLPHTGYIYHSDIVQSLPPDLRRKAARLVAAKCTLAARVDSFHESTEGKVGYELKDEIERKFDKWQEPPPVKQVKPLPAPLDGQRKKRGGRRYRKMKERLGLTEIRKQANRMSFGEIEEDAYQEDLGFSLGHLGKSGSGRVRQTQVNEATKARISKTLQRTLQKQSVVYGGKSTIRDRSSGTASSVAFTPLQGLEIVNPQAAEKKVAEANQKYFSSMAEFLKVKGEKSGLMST
UniProt Q15435: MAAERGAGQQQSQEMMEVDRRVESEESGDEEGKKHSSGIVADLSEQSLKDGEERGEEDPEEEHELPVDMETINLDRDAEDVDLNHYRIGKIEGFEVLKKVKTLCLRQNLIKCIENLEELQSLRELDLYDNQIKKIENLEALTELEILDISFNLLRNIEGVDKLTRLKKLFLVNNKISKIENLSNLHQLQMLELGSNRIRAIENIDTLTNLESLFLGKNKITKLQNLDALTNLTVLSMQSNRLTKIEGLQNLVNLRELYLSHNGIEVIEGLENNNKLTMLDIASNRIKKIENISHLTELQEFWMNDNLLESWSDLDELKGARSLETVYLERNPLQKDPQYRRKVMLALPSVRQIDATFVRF
UniProt P49642: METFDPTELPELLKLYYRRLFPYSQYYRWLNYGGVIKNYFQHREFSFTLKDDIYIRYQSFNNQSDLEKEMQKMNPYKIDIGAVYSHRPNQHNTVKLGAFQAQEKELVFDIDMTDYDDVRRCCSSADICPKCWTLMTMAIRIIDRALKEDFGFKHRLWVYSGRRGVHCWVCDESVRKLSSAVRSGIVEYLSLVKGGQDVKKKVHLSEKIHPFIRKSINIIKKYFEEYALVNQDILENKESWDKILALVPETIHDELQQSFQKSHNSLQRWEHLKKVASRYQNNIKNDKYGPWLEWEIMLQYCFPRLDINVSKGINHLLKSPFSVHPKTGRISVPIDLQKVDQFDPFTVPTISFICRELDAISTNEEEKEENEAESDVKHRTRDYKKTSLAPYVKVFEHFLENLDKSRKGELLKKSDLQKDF
UniProt Q8NAV1: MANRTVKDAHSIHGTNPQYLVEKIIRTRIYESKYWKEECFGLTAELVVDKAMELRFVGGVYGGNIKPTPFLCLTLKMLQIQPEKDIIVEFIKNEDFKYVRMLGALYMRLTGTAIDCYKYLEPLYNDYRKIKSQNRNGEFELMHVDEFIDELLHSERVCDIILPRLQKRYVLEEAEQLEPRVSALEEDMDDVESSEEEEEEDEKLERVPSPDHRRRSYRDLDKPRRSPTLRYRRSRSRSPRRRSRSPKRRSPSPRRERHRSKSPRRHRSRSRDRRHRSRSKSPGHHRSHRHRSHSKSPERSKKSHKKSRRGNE
UniProt Q16537, whole entry, looked up: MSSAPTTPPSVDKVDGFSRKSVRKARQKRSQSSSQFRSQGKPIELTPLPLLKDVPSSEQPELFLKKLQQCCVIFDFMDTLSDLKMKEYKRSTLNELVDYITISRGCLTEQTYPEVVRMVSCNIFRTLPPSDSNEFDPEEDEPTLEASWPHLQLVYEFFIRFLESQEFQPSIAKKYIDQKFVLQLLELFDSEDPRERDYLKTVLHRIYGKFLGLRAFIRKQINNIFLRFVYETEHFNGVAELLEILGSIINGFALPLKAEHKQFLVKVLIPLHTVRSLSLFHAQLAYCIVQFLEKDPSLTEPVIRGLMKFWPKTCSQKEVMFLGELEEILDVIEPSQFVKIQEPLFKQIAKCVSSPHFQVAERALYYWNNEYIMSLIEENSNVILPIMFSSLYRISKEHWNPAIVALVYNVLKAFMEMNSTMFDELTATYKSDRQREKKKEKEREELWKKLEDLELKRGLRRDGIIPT
UniProt P13861, whole entry, looked up: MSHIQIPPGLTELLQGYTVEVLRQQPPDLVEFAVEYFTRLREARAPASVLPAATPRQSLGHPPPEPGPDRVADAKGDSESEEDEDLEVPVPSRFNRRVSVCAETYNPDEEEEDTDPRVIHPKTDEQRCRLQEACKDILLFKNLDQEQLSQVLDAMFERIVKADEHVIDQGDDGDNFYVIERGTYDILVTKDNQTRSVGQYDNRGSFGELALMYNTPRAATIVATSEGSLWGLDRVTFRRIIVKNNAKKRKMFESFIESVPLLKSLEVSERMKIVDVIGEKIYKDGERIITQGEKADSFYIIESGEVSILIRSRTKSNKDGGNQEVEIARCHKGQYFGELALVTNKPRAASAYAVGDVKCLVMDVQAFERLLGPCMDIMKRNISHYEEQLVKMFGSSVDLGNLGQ
UniProt Q96A00: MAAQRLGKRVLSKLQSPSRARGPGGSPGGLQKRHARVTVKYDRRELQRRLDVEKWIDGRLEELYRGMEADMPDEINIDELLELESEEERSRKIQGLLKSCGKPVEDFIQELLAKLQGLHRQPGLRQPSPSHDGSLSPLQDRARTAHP
UniProt Q9UPN7: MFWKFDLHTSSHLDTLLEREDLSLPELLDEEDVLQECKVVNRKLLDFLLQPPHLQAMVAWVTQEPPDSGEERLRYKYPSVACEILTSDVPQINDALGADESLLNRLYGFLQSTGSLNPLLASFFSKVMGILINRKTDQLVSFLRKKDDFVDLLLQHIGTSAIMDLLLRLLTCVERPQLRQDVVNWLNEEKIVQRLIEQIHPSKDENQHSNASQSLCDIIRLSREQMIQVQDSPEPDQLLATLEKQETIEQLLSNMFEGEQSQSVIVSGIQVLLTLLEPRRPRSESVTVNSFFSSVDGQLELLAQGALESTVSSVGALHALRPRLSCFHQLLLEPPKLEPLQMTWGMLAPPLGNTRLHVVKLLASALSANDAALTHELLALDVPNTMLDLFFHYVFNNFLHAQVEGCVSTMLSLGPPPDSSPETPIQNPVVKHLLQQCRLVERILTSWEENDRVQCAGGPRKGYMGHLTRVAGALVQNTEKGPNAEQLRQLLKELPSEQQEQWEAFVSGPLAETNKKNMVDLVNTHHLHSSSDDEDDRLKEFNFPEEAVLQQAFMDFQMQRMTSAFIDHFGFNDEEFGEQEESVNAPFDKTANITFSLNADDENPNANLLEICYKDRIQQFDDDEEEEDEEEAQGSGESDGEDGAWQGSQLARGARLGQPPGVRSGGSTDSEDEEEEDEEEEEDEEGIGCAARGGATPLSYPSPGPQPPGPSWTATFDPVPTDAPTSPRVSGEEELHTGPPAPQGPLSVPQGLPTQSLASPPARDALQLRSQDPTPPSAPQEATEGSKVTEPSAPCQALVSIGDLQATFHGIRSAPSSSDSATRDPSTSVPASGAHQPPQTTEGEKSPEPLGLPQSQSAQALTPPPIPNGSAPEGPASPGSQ
UniProt Q8TAE6: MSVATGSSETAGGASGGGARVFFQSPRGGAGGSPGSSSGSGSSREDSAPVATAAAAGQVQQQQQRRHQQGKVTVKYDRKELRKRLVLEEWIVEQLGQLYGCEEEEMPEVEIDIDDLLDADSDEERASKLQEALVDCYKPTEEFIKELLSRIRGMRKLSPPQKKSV
UniProt P30048: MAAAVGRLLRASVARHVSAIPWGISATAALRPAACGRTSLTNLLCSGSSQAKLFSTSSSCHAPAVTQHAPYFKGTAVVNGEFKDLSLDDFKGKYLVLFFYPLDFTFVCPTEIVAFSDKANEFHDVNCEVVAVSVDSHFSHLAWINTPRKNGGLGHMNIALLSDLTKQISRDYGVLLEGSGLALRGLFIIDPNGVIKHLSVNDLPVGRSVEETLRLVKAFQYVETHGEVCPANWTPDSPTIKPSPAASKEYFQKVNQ
UniProt Q9Y478: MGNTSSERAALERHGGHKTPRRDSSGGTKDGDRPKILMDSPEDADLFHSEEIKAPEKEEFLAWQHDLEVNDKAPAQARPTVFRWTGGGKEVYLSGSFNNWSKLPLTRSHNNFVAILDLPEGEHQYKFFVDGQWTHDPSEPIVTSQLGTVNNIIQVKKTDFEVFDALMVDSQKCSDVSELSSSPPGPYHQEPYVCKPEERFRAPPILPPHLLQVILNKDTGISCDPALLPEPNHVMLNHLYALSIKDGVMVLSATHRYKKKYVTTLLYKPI

How the values were obtained:
Assay in all cases: log2 fold change, soluble protein after heating vs DMSO (PISA); higher = thermal stabilisation; K562 cells, 10 uM, 30 min; active = over 0.2 and 3.5 SD of the protein, either way, in both replicates (recomputed)
erlotinib = compound: C#Cc1cccc(Nc2ncnc3cc(OCCOC)c(OCCOC)cc23)c1 [erlotinib]
Procedure, shortened: (§1)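 K562 cells at 2×10^6 cells/mL were given 10 μM compound for 30 min. Aliquots then went through 3 min of heating across 48°C-58°C, were pooled, and were extracted in PBS with 0.5% NP-40 at 4°C, and the supernatant after 21,000xg for 90 min was quantified by TMTpro 16plex LC-MS/MS with channel sums equalised. Thermal stability relative to control samples, from duplicates, is given as log2 fold change.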

[1] = compound: C/C(=N\NC(=O)C1=CC(=CC=C1)S(=O)(=O)N2CCOCC2)/C3=C(C=CC(=C3)Cl)O
Procedure, shortened: as §1

[2] = compound: C1=CC(=C(C=C1Cl)C2=NC3=NC=CN=C3C(=N2)NC4=CC=NC=C4)F
Procedure, shortened: as §1

[3] = compound: C1=CC(=CC=C1C2=NC3=C(N2)C=C(C=C3)C(=O)N)OC4=CC=C(C=C4)Cl
Procedure, shortened: as §1

[4] = compound: C1=CC2=C(C=CC(=C2)/C=C\3/C(=O)NC(=NCC4=CC=CS4)S3)N=C1
Procedure, shortened: as §1

[5] = compound: C1=CC2=NC=CN=C2C=C1/C=C/3\C(=O)NC(=O)S3
Procedure, shortened: as §1

[6] = compound: C1=CC=C(C=C1)C2=NC(=C(N2)C3=CC=NC=C3)C4=CC(=C(C=C4)Cl)O
Procedure, shortened: as §1

[7] = compound: C1=CC=C2C(=C1)C3=NNC4=CC=CC(=C43)C2=O
Procedure, shortened: as §1

[8] = compound: C1CCN(C1)C(=O)NC2=CC=CC(=C2)NC3=NC=C(C(=N3)NCCC4=CN=CN4)Br
Procedure, shortened: as §1

[9] = compound: C1CN(CCC1(CC2=CC=C(C=C2)Cl)N)C3=NC=NC4=C3C=CN4
Procedure, shortened: as §1

IRAK-1-4 Inhibitor I = compound: C1COCCN1CCN2C3=CC=CC=C3N=C2NC(=O)C4=CC(=CC=C4)[N+](=O)[O-] [IRAK-1-4 Inhibitor I]
Procedure, shortened: as §1

ibrutinib = compound: C=CC(=O)N1CCC[C@@H](n2nc(-c3ccc(Oc4ccccc4)cc3)c3c(N)ncnc32)C1 [ibrutinib]
Procedure, shortened: as §1

[10] = compound: CC(=O)c1cnc2ccc(-c3cc(Cl)c(O)c(Cl)c3)nc2c1N[C@H]1CC[C@H](CN(C)C)CC1
Procedure, shortened: as §1

ralimetinib = compound: CC(C)(C)Cn1c(N)nc2ccc(-c3[nH]c(C(C)(C)C)nc3-c3ccc(F)cc3)nc21 [ralimetinib]
Procedure, shortened: as §1

[11] = compound: CC(C)(O)CC(=O)NCCn1ccc2ncnc(Nc3ccc(Oc4cccc(C(F)(F)F)c4)c(Cl)c3)c21
Procedure, shortened: as §1

[12] = compound: CC(C)C1=C2N=C(C=C(N2N=C1)NCC3=CC=CC=C3)NCCCCCCN
Procedure, shortened: as §1

[13] = compound: CC(C)C[C@@H](C=O)NC(=O)[C@H](CC(C)C)NC(=O)[C@H](CC(C)C)NC(=O)OCc1ccccc1
Procedure, shortened: as §1

pinometostat = compound: CC(C)N(C[C@H]1O[C@@H](n2cnc3c(N)ncnc32)[C@H](O)[C@@H]1O)[C@H]1C[C@@H](CCc2nc3cc(C(C)(C)C)ccc3[nH]2)C1 [pinometostat]
Procedure, shortened: as §1

[14] = compound: CC1=C(C(CC(=O)N1)C2=CC=C(C=C2)C(F)(F)F)C(=O)NC3=C(C=C4C(=C3)C=NN4)F
Procedure, shortened: as §1

[15] = compound: CC1=C(C2=C(C=C1)C(=O)C3=CC=CC=C3N2CCCN)C
Procedure, shortened: as §1

Measured: log2 fold change

PPP1R14B (UniProt Q96C90)
inactive: erlotinib 0.027 | [1] 0.026 | [2] 0.046 | [3] -0.02 | [4] -0.263 | [5] -0.076 | [6] 0.062 | [7] 0.18 | [8] -0.261 | [9] 0.038 | IRAK-1-4 Inhibitor I 0.022 | ibrutinib -0.144 | [10] 0.036 | ralimetinib 0.012 | [11] 0.194 | [12] 0.035 | [13] -0.149 | pinometostat -0.161 | [14] 0.017 | [15] -0.095

PPP6C isoform 3 (UniProt O00743)
inactive: erlotinib -0.032 | [1] -0.039 | [2] 0.005 | [3] -0.013 | [4] 0.006 | [5] 0.031 | [6] -0.032 | [7] -0.03 | [8] 0.03 | [9] 0.012 | IRAK-1-4 Inhibitor I 0.051 | ibrutinib 0.032 | [10] 0.031 | ralimetinib -0.026 | [11] 0.008 | [12] 0.023 | [13] 0.012 | pinometostat -0.007 | [14] 0.025 | [15] -0.114

PRKD2 isoform 3 (UniProt Q9BZL6)
inactive: erlotinib 0.04 | [1] 0.214 | [2] 0.022 | [3] 0.055 | [4] 0.003 | [5] 0.004 | [6] -0.126 | [7] -0.347 | [8] -0.04 | [9] -0.075 | IRAK-1-4 Inhibitor I -0.046 | ibrutinib -0.057 | ralimetinib 0.089 | [11] -0.302 | [12] -0.216 | [13] 0.074 | pinometostat 0.056 | [15] -0.087
active: [10] -1.03

PRKAB2 (UniProt O43741)
inactive: erlotinib -0.054 | [1] 0.29 | [2] 0.103 | [3] 0.032 | [4] -0.022 | [5] -0.115 | [6] 0.203 | [7] 0.144 | [8] -0.218 | [9] 0.064 | IRAK-1-4 Inhibitor I 0.003 | ibrutinib 0.054 | [10] -0.115 | ralimetinib 0.223 | [11] -0.117 | [12] -0.028 | [13] -0.175 | pinometostat -0.065 | [15] -0.053

PRPF31 (UniProt Q8WWY3)
inactive: erlotinib 0.105 | [1] 0.194 | [2] 0.05 | [3] 0 | [4] 0.217 | [5] 0 | [6] 0.027 | [7] 0.076 | [8] -0.067 | [9] 0.129 | IRAK-1-4 Inhibitor I -0.066 | ibrutinib -0.028 | [10] -0.3 | ralimetinib 0.069 | [11] -0.144 | [12] -0.387 | [13] 0.004 | pinometostat 0 | [15] -0.271

PPP1R7 (UniProt Q15435)
inactive: erlotinib 0.042 | [1] 0.037 | [2] 0.012 | [3] -0.009 | [4] 0.031 | [5] -0.002 | [6] 0.016 | [7] -0.001 | [8] -0.05 | [9] 0.031 | IRAK-1-4 Inhibitor I 0.045 | ibrutinib -0.022 | [10] 0.123 | ralimetinib -0.033 | [11] 0 | [12] -0.019 | [13] -0.067 | pinometostat -0.021 | [14] -0.013 | [15] -0.006

PRIM1 (UniProt P49642)
active: [12] -0.319
inactive: erlotinib 0.005 | [1] 0.011 | [2] -0.044 | [3] 0.049 | [4] -0.005 | [5] 0.027 | [6] -0.09 | [7] 0.061 | [8] -0.033 | [9] -0.074 | IRAK-1-4 Inhibitor I -0.066 | ibrutinib -0.035 | [10] 0.007 | ralimetinib 0.048 | [11] -0.079 | [13] 0.046 | pinometostat 0.114 | [15] -0.006

PRPF38A (UniProt Q8NAV1)
active: [10] -0.237
inactive: erlotinib -0.032 | [1] 0.035 | [2] -0.01 | [3] 0.049 | [4] 0 | [5] -0.046 | [6] 0 | [7] -0.08 | [8] 0.008 | [9] 0.018 | IRAK-1-4 Inhibitor I 0.011 | ibrutinib -0.051 | ralimetinib 0.03 | [11] 0.012 | [12] -0.029 | [13] 0.005 | pinometostat 0.027 | [15] -0.014

PPP2R5E (UniProt Q16537)
inactive: erlotinib 0.017 | [1] 0.096 | [2] 0.005 | [3] -0.061 | [4] -0.007 | [5] 0 | [6] 0.075 | [7] 0.054 | [8] -0.013 | [9] 0.056 | IRAK-1-4 Inhibitor I -0.01 | ibrutinib -0.001 | [10] -0.033 | ralimetinib -0.029 | [11] -0.046 | [12] -0.144 | [13] 0.019 | pinometostat 0.015 | [15] 0.136

PRKAR2A (UniProt P13861)
active: [9] -0.486 | [10] -0.696
inactive: erlotinib -0.002 | [1] 0.013 | [2] -0.024 | [3] 0.062 | [4] 0.082 | [5] -0.005 | [6] -0.021 | [7] -0.004 | [8] -0.177 | IRAK-1-4 Inhibitor I 0.006 | ibrutinib 0.013 | ralimetinib 0.047 | [11] -0.036 | [12] -0.002 | [13] -0.023 | pinometostat 0.074 | [15] 0.058

PRKACB isoform 2 (UniProt P22694)
inactive: erlotinib 0.013 | [1] 0.049 | [2] -0.065 | [3] 0.072 | [4] 0.007 | [5] 0.008 | [6] -0.034 | [7] -0.096 | [8] -0.095 | [9] 0.007 | IRAK-1-4 Inhibitor I -0.007 | ibrutinib -0.032 | [10] -0.067 | ralimetinib -0.035 | [11] -0.011 | [12] -0.012 | [13] 0.054 | pinometostat -0.008 | [15] 0.044

PPP1R14A (UniProt Q96A00)
inactive: erlotinib 0.047 | [1] 0.004 | [2] 0.004 | [3] 0.063 | [4] -0.036 | [5] -0.001 | [7] 0.004 | [8] 0.016 | [9] 0.015 | IRAK-1-4 Inhibitor I 0.041 | ibrutinib -0.01 | [10] 0.036 | ralimetinib 0.218 | [11] -0.009 | [12] 0.126 | [13] -0.122 | pinometostat -0.065 | [15] -0.073
active: [6] 0.341

PPP6R1 (UniProt Q9UPN7)
inactive: erlotinib -0.022 | [1] -0.017 | [2] 0.013 | [3] -0.004 | [4] 0.025 | [5] 0.012 | [6] -0.022 | [7] -0.039 | [8] -0.014 | [9] 0.033 | IRAK-1-4 Inhibitor I 0 | ibrutinib 0.009 | [10] 0.039 | ralimetinib -0.01 | [11] -0.031 | [12] -0.077 | [13] 0.038 | pinometostat -0.047 | [15] -0.041

PPP1R14C (UniProt Q8TAE6)
inactive: erlotinib 0.202 | [1] 0.097 | [2] -0.241 | [3] 0.18 | [4] -0.078 | [5] 0.05 | [6] 0.062 | [7] 0 | [8] -0.033 | [9] 0.162 | IRAK-1-4 Inhibitor I -0.015 | ibrutinib 0.064 | [10] 0.055 | ralimetinib -0.024 | [11] 0.05 | [12] -0.009 | [13] -0.113 | pinometostat 0 | [14] 0.156 | [15] 0.061

PRDX3 (UniProt P30048)
inactive: erlotinib -0.062 | [1] -0.034 | [2] 0.02 | [3] -0.045 | [4] -0.006 | [5] 0.017 | [6] -0.056 | [7] 0.011 | [8] -0.019 | [9] -0.033 | IRAK-1-4 Inhibitor I -0.001 | ibrutinib 0.039 | [10] 0.02 | ralimetinib -0.061 | [11] 0.06 | [12] 0.099 | [13] -0.003 | pinometostat -0.072 | [14] -0.006 | [15] 0.025

PRKAB1 (UniProt Q9Y478)
inactive: erlotinib 0.043 | [1] 0.15 | [2] 0.052 | [3] -0.011 | [4] -0.06 | [5] 0.024 | [6] 0.019 | [7] 0.026 | [8] -0.076 | [9] 0.068 | IRAK-1-4 Inhibitor I 0.015 | ibrutinib -0.02 | [10] -0.184 | ralimetinib 0.022 | [11] -0.069 | [12] -0.006 | [13] -0.041 | pinometostat -0.048 | [15] 0.015
